From patent US9980957B2, “Histone deacetylase (HDAC) inhibitors for the treatment of cancer” (TopoTarget UK Limited, priority 2005, dated 2018)
For at least one compound, name, drawing or mass did not settle the structure.

How the values were obtained:
[1] = test system: multiple myeloma; conditions: background statement; cited from earlier work
[2] = test system: multiple myeloma cell line U266; assay: CellTiter-Glo cell viability assay, combination with bortezomib; conditions: 130 nM, bortezomib omitted
[3] = test system: advanced cancers; assay: Phase 1 study, tumor reduction in patients with advanced cancers; format: in vivo, human; conditions: a patient with metastatic alveolar sarcoma
Experimental: A Phase 1 open label, dose escalation, safety, pharmacokinetics (PK), and pharmacodynamics (PD) study of PXD-101 was conducted in patients with advanced cancers. PXD-101 was administered as a 30-minute intravenous (IV) infusion daily for 5-days every 3-weeks. In a subgroup of patients, PXD-101 was administered orally once, twice or thrice on day 1 only, in course 2 or 3. Acetylation of histones extracted from peripheral blood mononuclear cells (PBMNC) was measured by Western blotting. The PK/PD profile of intravenous and oral PXD-101 was evaluated.

[4] = target: HDAC enzyme; assay: HDAC enzyme activity; format: biochemical
[5] = test system: rapidly proliferating cells; assay: Cell cycle arrest and apoptosis; format: cell-based
[6] = test system: xenograft models; assay: Xenograft models, tumor growth; conditions: in vivo

SMILES	Response rate [1]	Effect on proliferation, HDAC inhibitor alone, in words [2]	Clinical outcome, in words [3]	IC50 [4]	Cell cycle and apoptosis, in words [5]	Tumor growth in xenograft models, in words [6]
C[C@@H]1C[C@H]2[C@@H]3CCC4=CC(=O)C=C[C@]4(C)[C@@]3(F)[C@@H](O)C[C@]2(C)[C@@]1(O)C(=O)CO [Dexamethasone, dexamethasone]	25-35%	–	–	–	–	–
O=C(/C=C/c1cccc(S(=O)(=O)Nc2ccccc2)c1)NO [PXD-101]	–	inhibited proliferation more potently than SAHA alone	favorable outcome	9 to 110 nM	causes cell cycle arrest and apoptosis	slows tumor growth
